# Experimental data as given in PubChem BioAssay.
# The chains behind the UniProt entries cited, without tags or fusion partners.
# UniProt P08183, whole entry, looked up: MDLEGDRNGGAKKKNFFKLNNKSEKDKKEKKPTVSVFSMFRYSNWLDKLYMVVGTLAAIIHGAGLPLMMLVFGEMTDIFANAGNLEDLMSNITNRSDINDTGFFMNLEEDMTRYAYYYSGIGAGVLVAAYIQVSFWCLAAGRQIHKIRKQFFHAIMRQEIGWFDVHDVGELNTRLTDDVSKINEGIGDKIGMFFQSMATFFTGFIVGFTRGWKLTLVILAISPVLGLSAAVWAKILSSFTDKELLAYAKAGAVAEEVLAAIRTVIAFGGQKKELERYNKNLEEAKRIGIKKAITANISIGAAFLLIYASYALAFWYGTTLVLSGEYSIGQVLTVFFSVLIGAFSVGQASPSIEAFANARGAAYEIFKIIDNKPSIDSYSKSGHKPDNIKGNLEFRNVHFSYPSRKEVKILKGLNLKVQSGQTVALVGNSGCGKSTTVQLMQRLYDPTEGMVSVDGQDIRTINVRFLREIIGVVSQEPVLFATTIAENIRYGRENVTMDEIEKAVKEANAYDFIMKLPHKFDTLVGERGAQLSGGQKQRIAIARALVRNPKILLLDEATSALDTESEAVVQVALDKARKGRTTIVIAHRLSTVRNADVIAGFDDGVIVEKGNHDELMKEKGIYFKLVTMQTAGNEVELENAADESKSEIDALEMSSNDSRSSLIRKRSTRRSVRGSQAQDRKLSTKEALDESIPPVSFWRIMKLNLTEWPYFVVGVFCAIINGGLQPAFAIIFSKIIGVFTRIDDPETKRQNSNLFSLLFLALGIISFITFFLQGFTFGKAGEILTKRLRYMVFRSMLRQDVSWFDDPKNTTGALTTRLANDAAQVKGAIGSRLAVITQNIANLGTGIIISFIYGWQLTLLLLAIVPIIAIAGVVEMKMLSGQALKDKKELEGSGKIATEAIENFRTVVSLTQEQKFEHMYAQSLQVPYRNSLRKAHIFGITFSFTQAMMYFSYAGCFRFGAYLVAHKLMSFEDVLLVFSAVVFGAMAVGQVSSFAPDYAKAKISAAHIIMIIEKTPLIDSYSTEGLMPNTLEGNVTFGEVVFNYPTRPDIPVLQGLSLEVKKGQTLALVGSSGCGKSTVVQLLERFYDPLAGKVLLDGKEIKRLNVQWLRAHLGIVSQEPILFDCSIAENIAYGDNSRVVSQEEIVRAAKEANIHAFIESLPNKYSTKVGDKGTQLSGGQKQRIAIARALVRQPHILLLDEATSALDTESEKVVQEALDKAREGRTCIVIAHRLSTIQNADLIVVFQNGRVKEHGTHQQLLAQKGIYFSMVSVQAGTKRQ
# This list was built around the results that the source calls inconclusive (neither active nor inactive); the mix of calls is not that of the screen. For some of these results: A potency beside an inconclusive call is a rough fit, not a confirmed value. Active and inactive are the calls of the source. Unless noted, cut-off not given; nearly all actives show AC50 up to about 26 µM.
# Assays:
# [1] = growth inhibition of DIPG glioma cells, dose response, cell-based, SU-DIPG-XVII, MIPE5.0, CellTiter-Glo, qHTS (AID 1347060); details: SU-DIPG-XVII viability, CellTiter-Glo ATP luminescence;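 on AC50: cells exposed to compound for 48 hours before viability readout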
# [2] = growth inhibition of DIPG glioma cells, dose response, cell-based, SU-DIPG-XIII, MIPE4.0, CellTiter-Glo, qHTS (AID 1347061; cut-off not given, nearly all actives have AC50 up to about 37 µM;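 further: cells exposed to compound for 48 hours before readout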); details: SU-DIPG-XIII viability, CellTiter-Glo ATP luminescence
# [3] = growth inhibition of DIPG glioma cells, dose response, cell-based, JHH-DIPG-1, MIPE4.0, CellTiter-Glo, qHTS (AID 1347062; cut-off not given, nearly all actives have AC50 up to about 27 µM;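 on AC50: cells exposed to compound for two days before readout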); details: JHH-DIPG-1 viability, CellTiter-Glo ATP luminescence
# [4] = growth inhibition of DIPG glioma cells, dose response, cell-based, SU-DIPG-IV, MIPE4.0, CellTiter-Glo, qHTS (AID 1347063; cut-off not given, nearly all actives have AC50 up to about 30 µM;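 further: compound exposure lasted 48 hours before the viability readout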); details: SU-DIPG-IV viability, CellTiter-Glo ATP luminescence
# [5] = viability loss in pontine glioma line – cell-based, SU-DIPG-XXV, MIPE5.0, CellTiter-Glo, qHTS, dose response (AID 1347065); details: CellTiter-Glo ATP luminescence;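 further: cells exposed to compound for 48 hours before ATP readout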
# [6] = JHH-DIPG-1 glioma cell viability, MIPE5.0 library, CellTiter-Glo luminescence, qHTS (AID 1347067); details: JHH-DIPG-1 glioma viability, CellTiter-Glo ATP luminescence;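 further: cells exposed to compound for 48 hours before readout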
# [7] = SU-DIPG-XXV glioma cell viability, MIPE5.0 library, qHTS (AID 1347068; cut-off not given, nearly all actives have IC50 up to about 30 µM;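 on IC50: cells exposed to compound for 48 hours before viability readout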)
# [8] = SU-DIPG-VI glioma cell viability, MIPE4.0 library, CellTiter-Glo luminescence, qHTS (AID 1347066; cut-off not given, nearly all actives have AC50 up to about 30 µM;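 further: cells exposed to compound for 48 hours before readout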); details: CellTiter-Glo ATP luminescence
# [9] = biological target: ATP-dependent translocase ABCB1 (Homo sapiens) (UniProt P08183); assay: MDR1 (ABCB1) efflux transporter inhibition, cell-based (AID 377; in the data active means fluorescence slope change above about 50%; inconclusive means mostly about 31% to 49%); details: MDR1-expressing cells, fluorescent substrate accumulation slope; hits give high values; concentration not given here
# [10] = inhibitors of polyQ aggregate elongation, biochemical, solid-phase synthetic aggregates, QA3 (AID 1585; call rule not given here); details: biotin-polyQ incorporation, at 100 µM, hits give high values
# [11] = polyglutamine aggregation reduction, turbidity readout, qthio, single concentration 25 µM screen (AID 1588; call rule not given here); details: at 25 µM, hits give low values
# [12] = enhancers of SMN2 over SMN1 splicing, cell-based, SMN2/SMN1 luciferase reporters (AID 1598; call rule not given here); details: SMN2 vs SMN1 luciferase splicing reporter cells; at 10 µM; hits give high values
# [13] = protection of motor neurons from glutamate death, cell-based, TUNEL DNA degradation staining, MNGlu (AID 1594; call rule not given here); details: glutamate-induced death, at 1 µM, hits give high values
smiles,measurement,setting,value
COc1cc(-c2nn(C3CCC(N4CCN(C(C)=O)CC4)CC3)c3ncnc(N)c23)ccc1NC(=O)c1cc2ccccc2n1C (configuration not stated),AC50,[1],active: 3.72 µM
same,AC50,[2],inconclusive: 0.296 µM [cytotoxic]
same,AC50,[3],inconclusive: 0.59 µM [cytotoxic]
same,AC50,[4],inconclusive: 0.469 µM [cytotoxic]
same,AC50,[5],active: 4.17 µM
same,AC50,[6],active: 7.42 µM
CNC(=O)c1cc(Oc2ccc(NC(=O)Nc3cc(C(C)(C)C)nn3-c3ccc4ncccc4c3)c(F)c2)ccn1,AC50,[1],active: 5.9 µM
same,AC50,[2],inconclusive: 16.6 µM [cytotoxic]
same,AC50,[3],active: 7.43 µM
same,AC50,[4],active: 8.33 µM
same,AC50,[5],active: 9.34 µM
same,AC50,[6],active: 5.9 µM
same,IC50,[7],active: 20.9 µM
C[C@]12CCC(=O)C=C1CC[C@@H]1[C@@H]2[C@@H](O)C[C@@]2(C)[C@H]1CC[C@]2(O)C(=O)CO,outcome,[1],inactive
same,AC50,[2],inconclusive: 26.4 µM [cytotoxic]
same,outcome,[3],inactive
same,AC50,[4],inconclusive: 0.0187 µM
same,outcome,[5],inactive
same,outcome,[8],inactive
same,outcome,[6],inactive
CC1(C)Cc2c(-c3ccccc3)c(-c3ccc(Cl)cc3)c(CC(=O)O)n2C1,AC50,[1],active: 26.3 µM
same,AC50,[2],inconclusive: 11.8 µM [cytotoxic]
same,outcome,[3],inactive
same,AC50,[4],active: 18.7 µM
same,AC50,[5],inconclusive: 0.00105 µM [cytotoxic]
same,AC50,[8],inconclusive: 33.2 µM [cytotoxic]
same,AC50,[6],inconclusive: 2.63 µM [cytotoxic]
same,outcome,[7],inactive
N#Cc1ccc(C(c2ccc(C#N)cc2)n2cncn2)cc1,outcome,[1],inactive
same,AC50,[2],inconclusive: 13.2 µM [cytotoxic]
same,outcome,[3],inactive
same,AC50,[4],inconclusive: 3.32 µM [cytotoxic]
same,outcome,[5],inactive
same,outcome,[6],inactive
c1ccc2c(-c3cnn4cc(-c5ccc(N6CCNCC6)cc5)cnc34)ccnc2c1,AC50,[1],active: 3.32 µM
same,AC50,[2],inconclusive: 20.9 µM [cytotoxic]
same,AC50,[3],inconclusive: 33.2 µM [cytotoxic]
same,AC50,[4],inconclusive: 7.43 µM [cytotoxic]
same,AC50,[8],inconclusive: 3.72 µM [cytotoxic]
same,AC50,[6],active: 2.63 µM
same,IC50,[7],active: 5.9 µM
CNc1nc(Nc2ccc(C(=O)N3CCOCC3)cc2OC)ncc1Cl,outcome,[1],inactive
same,AC50,[2],inconclusive: 18.7 µM [cytotoxic]
same,AC50,[3],inconclusive: 26.4 µM [cytotoxic]
same,outcome,[4],inactive
same,AC50,[5],inconclusive: 37.2 µM [cytotoxic]
same,AC50,[6],inconclusive: 23.5 µM [cytotoxic]
NC1(C(=O)N[C@@H](CCO)c2ccc(Cl)cc2)CCN(c2ncnc3[nH]ccc23)CC1,AC50,[1],active: 14.8 µM
same,AC50,[2],active: 14.8 µM
same,AC50,[3],inconclusive: 0.209 µM [cytotoxic]
same,AC50,[4],active: 0.662 µM
same,AC50,[8],inconclusive: 0.469 µM [cytotoxic]
same,AC50,[6],inconclusive: 1.05 µM [cytotoxic]
same,IC50,[7],active: 3.72 µM
CCN(CC)CCCC(C)Nc1ccnc2cc(Cl)ccc12 (configuration not stated),fluorescence slope change,[9],inactive: -4.1%
same,inhibition,[10],inconclusive: -19.5%
same,aggregation (% of control),[11],inconclusive: 115%
same,SMN2/SMN1 luciferase ratio,[12],inconclusive: 0.87
same,AC50,[1],inconclusive: 6.05 µM [cytotoxic]
same,AC50,[2],active: 0.00833 µM
same,AC50,[3],inconclusive: 0.118 µM [cytotoxic]
same,AC50,[4],inconclusive: 1.05 µM [cytotoxic]
same,AC50,[8],inconclusive: 0.935 µM [cytotoxic]
same,outcome,[6],inactive
NC(=O)c1ccc(-c2nc(-c3ccc4c(c3)OCCO4)c(-c3ccccn3)[nH]2)cc1,AC50,[1],inconclusive: 33.2 µM [cytotoxic]
same,AC50,[2],inconclusive: 29.6 µM [cytotoxic]
same,outcome,[3],inactive
same,AC50,[4],inconclusive: 6.62 µM [cytotoxic]
same,AC50,[5],inconclusive: 37.2 µM [cytotoxic]
same,outcome,[8],inactive
CC(C)[C@H](CO)Nc1nc(Nc2ccc(C(=O)O)c(Cl)c2)c2ncn(C(C)C)c2n1,outcome,[1],inactive
same,outcome,[2],inactive
same,AC50,[3],inconclusive: 20.9 µM [cytotoxic]
same,AC50,[4],inconclusive: 37.2 µM [cytotoxic]
same,AC50,[5],inconclusive: 0.00105 µM [cytotoxic]
same,AC50,[8],active: 23.5 µM
CN(C)Cc1cccc(N=C(c2ccccc2)c2c(O)[nH]c3cc(C(=O)N(C)C)ccc23)c1,AC50,[1],inconclusive: 29.5 µM [cytotoxic]
same,AC50,[2],inconclusive: 14.8 µM [cytotoxic]
same,AC50,[3],inconclusive: 20.9 µM [cytotoxic]
same,AC50,[4],inconclusive: 10.5 µM [cytotoxic]
same,AC50,[5],inconclusive: 18.6 µM [cytotoxic]
same,AC50,[6],inconclusive: 20.9 µM [cytotoxic]
same,IC50,[7],active: 18.6 µM
NC12CC3CC(CC(C3)C1)C2,fluorescence slope change,[9],inconclusive: 36.4%
same,inhibition,[10],inconclusive: -24.6%
same,aggregation (% of control),[11],inconclusive: 96.8%
same,SMN2/SMN1 luciferase ratio,[12],active: 1.22
same,outcome,[1],inactive
same,AC50,[2],inconclusive: 4.69 µM [cytotoxic]
same,AC50,[3],inconclusive: 26.4 µM [cytotoxic]
same,AC50,[4],inconclusive: 33.2 µM [cytotoxic]
same,AC50,[5],inconclusive: 8.33 µM
same,outcome,[8],inactive
same,outcome,[6],inactive
same,outcome,[7],inactive
N#CC(c1ccc(Cl)cc1)c1c(Cl)cc(-n2ncc(=O)[nH]c2=O)cc1Cl (configuration not stated),AC50,[1],inconclusive: 0.0417 µM
same,AC50,[2],active: 23.5 µM
same,AC50,[3],inconclusive: 7.43 µM [cytotoxic]
same,AC50,[4],inconclusive: 20.9 µM [cytotoxic]
same,AC50,[5],inconclusive: 10.5 µM [cytotoxic]
same,IC50,[7],inconclusive: 14.8 µM [cytotoxic]
CN1CCN(c2ncc(-c3cc(Cl)cc(Cl)c3Cl)c(N)n2)CC1,outcome,[1],inactive
same,AC50,[2],inconclusive: 8.33 µM [cytotoxic]
same,AC50,[3],inconclusive: 7.43 µM [cytotoxic]
same,AC50,[4],inconclusive: 4.69 µM [cytotoxic]
same,AC50,[5],inconclusive: 0.00166 µM [cytotoxic]
same,outcome,[8],inactive
CC(C)(Oc1ccc(C2CC2(Cl)Cl)cc1)C(=O)O (configuration not stated),AC50,[1],inconclusive: 0.00132 µM [cytotoxic]
same,outcome,[2],inactive
same,outcome,[3],inactive
same,AC50,[4],inconclusive: 54 µM [cytotoxic]
same,outcome,[5],inactive
same,outcome,[6],inactive
Cc1nnc(NS(=O)(=O)c2ccc(N)cc2)s1,fluorescence slope change,[9],inactive: 9.7%
same,inhibition,[10],inconclusive: 14.8%
same,aggregation (% of control),[11],inconclusive: 111%
same,protection,[13],active: 35%
same,SMN2/SMN1 luciferase ratio,[12],inconclusive: 1.05
same,AC50,[1],inconclusive: 0.00166 µM
same,AC50,[2],active: 20.9 µM
same,AC50,[3],active: 1.32 µM
same,AC50,[4],inconclusive: 1.32 µM [cytotoxic]
same,outcome,[5],inactive
same,AC50,[8],inconclusive: 0.235 µM
same,outcome,[6],inactive
same,IC50,[7],inconclusive: 29.5 µM
Nc1[nH]c(=O)ncc1F,outcome,[1],inactive
same,AC50,[2],inconclusive: 1.05 µM [cytotoxic]
same,AC50,[3],inconclusive: 5.26 µM [cytotoxic]
same,AC50,[4],inconclusive: 3.72 µM [cytotoxic]
same,outcome,[8],inactive
same,outcome,[6],inactive
same,outcome,[7],inactive
NS(=O)(=O)c1cc2c(cc1Cl)NCNS2(=O)=O,inhibition,[10],inconclusive: 6.63%
same,aggregation (% of control),[11],inconclusive: 103%
same,protection,[13],inconclusive: 10%
same,SMN2/SMN1 luciferase ratio,[12],inconclusive: 1.09
same,outcome,[1],inactive
same,outcome,[2],inactive
same,outcome,[3],inactive
same,outcome,[4],inactive
same,outcome,[8],inactive
same,outcome,[6],inactive
same,outcome,[7],inactive
CCOc1cc(N)c(Cl)cc1C(=O)NCC1CN(Cc2ccc(F)cc2)CCO1 (configuration not stated),AC50,[1],inconclusive: 18.6 µM [cytotoxic]
same,outcome,[2],inactive
same,outcome,[3],inactive
same,outcome,[4],inactive
same,outcome,[8],inactive
same,AC50,[6],inconclusive: 37.2 µM [cytotoxic]
c1ccc(CNc2nc(N3CCOc4ccccc43)nc3c2CCCC3)cc1,AC50,[1],inconclusive: 0.0661 µM [cytotoxic]
same,AC50,[2],inconclusive: 23.5 µM [cytotoxic]
same,outcome,[3],inactive
same,AC50,[4],inconclusive: 18.7 µM [cytotoxic]
same,AC50,[5],inconclusive: 26.3 µM [cytotoxic]
same,AC50,[8],inconclusive: 23.5 µM [cytotoxic]
same,AC50,[6],inconclusive: 26.3 µM [cytotoxic]
same,IC50,[7],inconclusive: 37.2 µM [cytotoxic]
COc1ccc(Cc2nccc3cc(OC)c(OC)cc23)cc1OC,AC50,[1],inconclusive: 16.6 µM [cytotoxic]
same,outcome,[2],inactive
same,outcome,[3],inactive
same,AC50,[4],inconclusive: 0.00105 µM
same,outcome,[8],inactive
same,AC50,[6],inconclusive: 1.86 µM [cytotoxic]
same,IC50,[7],inconclusive: 11.8 µM [cytotoxic]
CCCOc1ccc2nc(NC(=O)OC)[nH]c2c1,inhibition,[10],inconclusive: 9.49%
same,aggregation (% of control),[11],inconclusive: 82%
same,protection,[13],inconclusive: 22%
same,SMN2/SMN1 luciferase ratio,[12],inconclusive: 0.77
same,AC50,[1],active: 0.372 µM
same,outcome,[2],inactive
same,AC50,[3],inconclusive: 0.0118 µM [cytotoxic]
same,AC50,[4],inconclusive: 0.0059 µM [cytotoxic]
same,AC50,[8],inconclusive: 0.00105 µM
same,AC50,[6],active: 0.295 µM
same,IC50,[7],inconclusive: 0.372 µM [cytotoxic]
Cc1cc(Nc2cc(NC(=O)c3c(Cl)cccc3Cl)ccn2)nc(N)n1,AC50,[1],inconclusive: 1.32 µM [cytotoxic]
same,AC50,[2],inconclusive: 16.6 µM [cytotoxic]
same,AC50,[3],active: 18.7 µM
same,AC50,[4],active: 18.7 µM
same,AC50,[8],inconclusive: 20.9 µM [cytotoxic]
same,IC50,[7],active: 18.6 µM
Clc1ccc2nsnc2c1NC1=NCCN1,outcome,[1],inactive
same,outcome,[2],inactive
same,AC50,[3],inconclusive: 37.2 µM [cytotoxic]
same,AC50,[4],inconclusive: 37.2 µM [cytotoxic]
same,outcome,[8],inactive
same,outcome,[6],inactive
Nc1ncnc2c1c(-c1cccc(OCc3ccccc3)c1)cn2C1CC(CN2CCC2)C1 (configuration not stated),AC50,[1],inconclusive: 0.132 µM [cytotoxic]
same,AC50,[2],inconclusive: 6.62 µM [cytotoxic]
same,AC50,[3],active: 11.8 µM
same,AC50,[4],inconclusive: 16.6 µM [cytotoxic]
same,AC50,[8],active: 2.96 µM
same,AC50,[6],active: 6.61 µM
same,IC50,[7],inconclusive: 33.2 µM
C[C@H](Cc1ccc(O)c(O)c1)[C@@H](C)Cc1ccc(O)c(O)c1,AC50,[1],inconclusive: 20.9 µM [cytotoxic]
same,AC50,[2],inconclusive: 23.5 µM [cytotoxic]
same,AC50,[3],inconclusive: 10.5 µM [cytotoxic]
same,AC50,[4],active: 16.6 µM
same,AC50,[5],inconclusive: 18.6 µM [cytotoxic]
same,AC50,[8],active: 23.5 µM
same,AC50,[6],inconclusive: 2.09 µM [cytotoxic]
